{"sequences": {"note": "By UniProt entry, the sequences of proteins in these tests, tags left out. Residues count along the entry.", "UniProt P19490, residues 19-907": "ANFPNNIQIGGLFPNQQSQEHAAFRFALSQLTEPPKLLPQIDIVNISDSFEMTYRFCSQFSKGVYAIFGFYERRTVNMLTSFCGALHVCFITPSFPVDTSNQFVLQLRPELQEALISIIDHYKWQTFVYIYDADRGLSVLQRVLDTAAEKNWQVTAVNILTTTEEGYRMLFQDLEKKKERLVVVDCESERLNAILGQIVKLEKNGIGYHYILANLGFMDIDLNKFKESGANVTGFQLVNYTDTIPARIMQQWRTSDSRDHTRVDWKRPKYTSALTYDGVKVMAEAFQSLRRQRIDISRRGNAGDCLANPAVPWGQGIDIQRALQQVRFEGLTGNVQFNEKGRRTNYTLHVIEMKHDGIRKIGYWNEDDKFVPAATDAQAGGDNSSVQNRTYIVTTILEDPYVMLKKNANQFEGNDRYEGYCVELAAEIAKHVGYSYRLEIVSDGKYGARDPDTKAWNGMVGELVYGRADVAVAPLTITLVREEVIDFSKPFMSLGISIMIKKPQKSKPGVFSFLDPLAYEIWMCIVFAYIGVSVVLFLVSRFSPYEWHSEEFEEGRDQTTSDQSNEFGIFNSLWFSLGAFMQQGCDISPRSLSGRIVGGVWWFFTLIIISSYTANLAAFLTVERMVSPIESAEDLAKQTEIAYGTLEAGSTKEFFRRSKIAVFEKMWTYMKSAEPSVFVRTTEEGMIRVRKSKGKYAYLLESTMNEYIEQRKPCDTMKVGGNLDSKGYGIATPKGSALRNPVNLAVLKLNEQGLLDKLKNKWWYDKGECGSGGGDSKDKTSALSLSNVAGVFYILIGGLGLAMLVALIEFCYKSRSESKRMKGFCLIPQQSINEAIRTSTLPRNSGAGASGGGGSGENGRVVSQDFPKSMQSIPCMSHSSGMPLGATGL"}, "source": "paper PMC12422955", "binders": {"B1": {"name": "noelin-3 (NOE3) (protein, UniProt P63057 24-478)", "chain": "QTLPSLVGLNTTRLSAPDTLTQISPKEGWQVYSSAQDPDGRCICTVVAPEQNLCSRDAKSRQLRQLLEKVQNMSQSIEVLNLRTQRDFQYVLKMETQMKGLKAKFRQIEDDRKTLMTKHFQELKEKMDELLPLIPVLEQYKTDAKLITQFKEEIRNLSSVLTGIQEEIGAYDYEELHQRVLSLETRLRDCMKKLTCGKLMKITGPITVKTSGTRFGAWMTDPLASEKNNRVWYMDSYTNNKIVREYKSIADFVSGAESRTYNLPFKWAGTNHVVYNGSLYFNKYQSNIIIKYSFDLGRVLAQRSLEYAGFHNVYPYTWGGFSDIDLMADEIGLWAVYATNQNAGNIVISQLNQDTLEVMKSWSTGYPKRSAGESFMICGTLYVTNSHLTGAKVYYSYSTKTSTYEYTDIPFHNQYFHISMLDYNARDRALYAWNNGHQVLFNVTLFHIIKTEDDT"}}, "target": "GluA1 subunit of native AMPA receptors from rat cerebellum (rat (endogenous in cerebellum)) (UniProt P19490)", "assay": "affinity purification with mass spectrometry; rat cerebellum in 2% digitonin with (R,R)-2b and MPQX; GluA1 captured by 11B8 scFv–GFP–3C–Twin-Strep on Strep-Tactin XT (GluA2-containing receptors kept on the resin by 15F1 Fab), 3C release, FSEC; western blot and mass spectrometry", "note": "Results are given in words; binding and its absence hold for the method and conditions named. In cells and extracts the contact can be indirect. A yes stands for co-enrichment or nearness to the bait. Other partners may have been found.", "data": [{"binder": "B1", "values": [{"measurement": "binding", "result": "binds"}]}]}
